Data as given in PubChem BioAssay AID248 (DTP/NCI, 2004).
The list is a part of this screen's results and no random one: it gathers tests that were run many times, whatever their T/C, doses with no T/C, and many T/C values between a quarter and a half above the control. Further doses and runs are listed elsewhere. T/C: endpoint of the treated group in % of that of the vehicle group. Some doses have a count of surviving animals in place of a T/C: the source files T/C as zero there, which appears to mark a toxic dose or a test without result, not a measured value. Some survivor counts are full or nearly so, which does not show that the dose was tolerated: survival well below the control is almost never listed, so the zero probably covers shortened survival too. Counts of survivors are from the toxicity check (mostly the fifth day) where no day follows; animals may have died later. Schedules are NCI's codes, taken here to give the interval after Q, in days (D) or hours (H), and the number of doses after X. Some schedules carry Z or #; the key to these is not given. Where survival is the endpoint, this PubChem deposit counts one and a half times the control or more as active, and values a quarter to a half above the control carry no call in these data; other NCI protocols may use other cut-offs. Some T/C values are followed by the survivors on the day toxicity was checked, most often the fifth; without a count, all were alive then. Some doses were run more than once; the values are given in rising order.

Tested on: L1210 leukemia ip in BDF1 mice, survival T/C
Assay: NCI In Vivo Anticancer Drug Screen. Data for tumor model L1210 Leukemia (intraperitoneal) in B6D2F1 (BDF1) mice
Details: T/C endpoint: mean survival time, higher T/C = longer survival

Structure (SMILES): CN(Cc1cnc2nc(N)nc(N)c2n1)c1c(Cl)cc(C(=O)NC(CCC(=O)O)C(=O)O)cc1Cl (stereo not drawn)
- survivor count (dose: 80.0 mg/kg/injection, schedule: Q01DX Z (ip), vehicle: methylcellulose (MC)): 4 of 6
- survivor count (dose: 90.0 mg/kg/injection, schedule: Q01DX Z (ip), vehicle: carboxymethylcellulose (CMC)): 5 of 6
- T/C (dose: 100.0 mg/kg/injection, schedule: Q04DX003 (ip), vehicle: carboxymethylcellulose (CMC)): 145 % of control
- T/C (dose: 100.0 mg/kg/injection, schedule: Q## X003 (ip), vehicle: other): 130 % of control
- T/C (dose: 100.0 mg/kg/injection, schedule: Q## X016 (ip), vehicle: other): 137 % of control
- T/C (dose: 120.0 mg/kg/injection, schedule: Q01DX001 (ip), vehicle: other): 126 % of control
- survivor count (dose: 120.0 mg/kg/injection, schedule: Q## X008 (ip), vehicle: alkali diluted with saline): 6 of 10
- T/C (dose: 140.0 mg/kg/injection, schedule: Q01DX001 (ip), vehicle: methylcellulose (MC)): 129 % of control
- T/C (dose: 160.0 mg/kg/injection, schedule: Q01DX005 (ip), vehicle: other): 134 % of control
- T/C (dose: 160.0 mg/kg/injection, schedule: Q01DX007 (ip), vehicle: other): 128 % of control
- T/C (dose: 160.0 mg/kg/injection, schedule: Q01DX007 (sc), vehicle: other): 129 % of control
- T/C (dose: 160.0 mg/kg/injection, schedule: Q01DX009 (ip), vehicle: saline): 86, 100, 195, 234 % of control
- survivor count (dose: 160.0 mg/kg/injection, schedule: Q01DX Z (iv), vehicle: alkali diluted with saline): 7 of 7
- survivor count (dose: 160.0 mg/kg/injection, schedule: Q01DX Z (oral), vehicle: alkali diluted with saline): 4 of 7
- survivor count (dose: 180.0 mg/kg/injection, schedule: Q01DX Z (ip), vehicle: carboxymethylcellulose (CMC)): 2 of 6
- T/C (dose: 200.0 mg/kg/injection, schedule: Q## X003 (ip), vehicle: other): 145 % of control
- T/C (dose: 240.0 mg/kg/injection, schedule: Q01DX001 (ip), vehicle: carboxymethylcellulose (CMC)): 135 % of control
- T/C (dose: 280.0 mg/kg/injection, schedule: Q01DX001 (ip), vehicle: methylcellulose (MC)): 129 and 144 % of control [5 of 6 alive]
- T/C (dose: 280.0 mg/kg/injection, schedule: Q07DX Z (ip), vehicle: methylcellulose (MC)): 139 % of control
- survivor count (dose: 320.0 mg/kg/injection, schedule: Q01DX005 (ip), vehicle: other): 10 of 10
- survivor count (dose: 320.0 mg/kg/injection, schedule: Q01DX007 (ip), vehicle: other): 9 of 10
- survivor count (dose: 320.0 mg/kg/injection, schedule: Q01DX007 (sc), vehicle: other): 10 of 10
- survivor count (dose: 320.0 mg/kg/injection, schedule: Q01DX Z (iv), vehicle: alkali diluted with saline): 6 of 7
- survivor count (dose: 320.0 mg/kg/injection, schedule: Q01DX Z (oral), vehicle: alkali diluted with saline): 6 of 7
- T/C (dose: 400.0 mg/kg/injection, schedule: Q01DX001 (ip), vehicle: olive oil, sesame oil, peanut oil): 125 % of control
- T/C (dose: 400.0 mg/kg/injection, schedule: Q01DX001 (sc), vehicle: carboxymethylcellulose (CMC)): 126 % of control
- T/C (dose: 400.0 mg/kg/injection, schedule: Q## X016 (ip), vehicle: other): 148 % of control
- T/C (dose: 480.0 mg/kg/injection, schedule: Q01DX001 (ip), vehicle: other): 125 % of control
- T/C (dose: 480.0 mg/kg/injection, schedule: Q## X008 (ip), vehicle: other): 128 % of control
- T/C (dose: 560.0 mg/kg/injection, schedule: Q01DX001 (ip), vehicle: methylcellulose (MC)): 133 % of control
- T/C (dose: 560.0 mg/kg/injection, schedule: Q07DX Z (ip), vehicle: methylcellulose (MC)): 145 % of control
- T/C (dose: 647.0 mg/kg/injection, schedule: Q01DX001 (ip), vehicle: carboxymethylcellulose (CMC)): 128 % of control
- T/C (dose: 800.0 mg/kg/injection, schedule: Q01DX001 (sc), vehicle: carboxymethylcellulose (CMC)): 132 % of control [9 of 10 alive]
- T/C (dose: 800.0 mg/kg/injection, schedule: Q01DX001 (sc), vehicle: other): 135 % of control
- T/C (dose: 875.0 mg/kg/injection, schedule: Q01DX001 (ip), vehicle: alkali diluted with saline): 142 % of control
- T/C (dose: 960.0 mg/kg/injection, schedule: Q01DX001 (ip), vehicle: alkali diluted with saline): 130 % of control
- T/C (dose: 960.0 mg/kg/injection, schedule: Q01DX001 (ip), vehicle: other): 134 % of control
- T/C (dose: 960.0 mg/kg/injection, schedule: Q## X008 (ip), vehicle: other): 147 % of control
- T/C (dose: 1000.0 mg/kg/injection, schedule: Q01DX001 (ip), vehicle: alkali diluted with saline): 126 % of control
- T/C (dose: 1000.0 mg/kg/injection, schedule: Q07DX Z (ip), vehicle: alkali diluted with saline): 131 % of control
- T/C (dose: 1280.0 mg/kg/injection, schedule: Q01DX001 (ip), vehicle: alkali diluted with saline): 126 % of control
- T/C (dose: 1600.0 mg/kg/injection, schedule: Q01DX001 (ip), vehicle: olive oil, sesame oil, peanut oil): 126 and 127 % of control [5 of 6 alive]
- T/C (dose: 1600.0 mg/kg/injection, schedule: Q01DX001 (sc), vehicle: other): 148 % of control [9 of 10 alive]
